Measurements as given in PMC4965873.
These are yes or no findings as the source states them, for the method shown. In cells and extracts the contact can be indirect. Here binding means that the protein was enriched with, or labelled near, the bait; the list need not be complete. A no says only that the protein was not detected with the bait.

The chains behind the UniProt entries cited, without tags or fusion partners. Residues count along the entry.
UniProt P62962: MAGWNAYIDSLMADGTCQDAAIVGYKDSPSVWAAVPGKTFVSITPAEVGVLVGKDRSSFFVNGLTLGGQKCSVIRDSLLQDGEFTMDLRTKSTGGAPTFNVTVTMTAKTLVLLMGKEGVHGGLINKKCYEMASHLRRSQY
UniProt O55033: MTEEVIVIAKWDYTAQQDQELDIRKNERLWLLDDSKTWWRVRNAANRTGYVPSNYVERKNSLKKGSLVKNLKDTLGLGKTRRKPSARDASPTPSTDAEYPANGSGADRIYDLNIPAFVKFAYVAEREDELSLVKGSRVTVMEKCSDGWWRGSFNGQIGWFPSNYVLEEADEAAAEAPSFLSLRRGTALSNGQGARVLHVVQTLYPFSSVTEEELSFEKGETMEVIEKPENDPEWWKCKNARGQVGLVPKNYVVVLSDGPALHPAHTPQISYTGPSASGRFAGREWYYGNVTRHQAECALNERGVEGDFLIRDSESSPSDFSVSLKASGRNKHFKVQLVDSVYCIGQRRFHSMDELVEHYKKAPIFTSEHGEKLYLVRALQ
UniProt P11835, residues 24-771: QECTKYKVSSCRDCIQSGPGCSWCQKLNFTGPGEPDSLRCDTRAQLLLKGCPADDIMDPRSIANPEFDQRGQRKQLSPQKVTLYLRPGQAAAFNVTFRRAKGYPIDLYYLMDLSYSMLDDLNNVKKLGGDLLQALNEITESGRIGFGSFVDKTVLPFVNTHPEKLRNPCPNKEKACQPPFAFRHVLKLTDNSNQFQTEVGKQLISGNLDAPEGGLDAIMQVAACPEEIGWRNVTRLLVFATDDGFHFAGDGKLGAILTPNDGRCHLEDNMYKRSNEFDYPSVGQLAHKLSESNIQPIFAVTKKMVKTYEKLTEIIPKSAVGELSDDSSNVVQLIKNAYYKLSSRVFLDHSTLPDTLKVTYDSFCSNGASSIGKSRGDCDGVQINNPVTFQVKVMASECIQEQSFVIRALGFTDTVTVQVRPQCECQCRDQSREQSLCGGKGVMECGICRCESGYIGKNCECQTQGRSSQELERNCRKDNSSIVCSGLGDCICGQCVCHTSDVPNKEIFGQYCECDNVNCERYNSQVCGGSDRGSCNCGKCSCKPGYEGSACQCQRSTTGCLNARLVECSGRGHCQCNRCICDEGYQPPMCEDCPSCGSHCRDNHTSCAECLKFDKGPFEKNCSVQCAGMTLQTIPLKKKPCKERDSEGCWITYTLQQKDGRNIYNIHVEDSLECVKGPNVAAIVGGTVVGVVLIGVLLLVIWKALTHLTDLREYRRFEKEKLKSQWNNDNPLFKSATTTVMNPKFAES
UniProt Q8BTI9: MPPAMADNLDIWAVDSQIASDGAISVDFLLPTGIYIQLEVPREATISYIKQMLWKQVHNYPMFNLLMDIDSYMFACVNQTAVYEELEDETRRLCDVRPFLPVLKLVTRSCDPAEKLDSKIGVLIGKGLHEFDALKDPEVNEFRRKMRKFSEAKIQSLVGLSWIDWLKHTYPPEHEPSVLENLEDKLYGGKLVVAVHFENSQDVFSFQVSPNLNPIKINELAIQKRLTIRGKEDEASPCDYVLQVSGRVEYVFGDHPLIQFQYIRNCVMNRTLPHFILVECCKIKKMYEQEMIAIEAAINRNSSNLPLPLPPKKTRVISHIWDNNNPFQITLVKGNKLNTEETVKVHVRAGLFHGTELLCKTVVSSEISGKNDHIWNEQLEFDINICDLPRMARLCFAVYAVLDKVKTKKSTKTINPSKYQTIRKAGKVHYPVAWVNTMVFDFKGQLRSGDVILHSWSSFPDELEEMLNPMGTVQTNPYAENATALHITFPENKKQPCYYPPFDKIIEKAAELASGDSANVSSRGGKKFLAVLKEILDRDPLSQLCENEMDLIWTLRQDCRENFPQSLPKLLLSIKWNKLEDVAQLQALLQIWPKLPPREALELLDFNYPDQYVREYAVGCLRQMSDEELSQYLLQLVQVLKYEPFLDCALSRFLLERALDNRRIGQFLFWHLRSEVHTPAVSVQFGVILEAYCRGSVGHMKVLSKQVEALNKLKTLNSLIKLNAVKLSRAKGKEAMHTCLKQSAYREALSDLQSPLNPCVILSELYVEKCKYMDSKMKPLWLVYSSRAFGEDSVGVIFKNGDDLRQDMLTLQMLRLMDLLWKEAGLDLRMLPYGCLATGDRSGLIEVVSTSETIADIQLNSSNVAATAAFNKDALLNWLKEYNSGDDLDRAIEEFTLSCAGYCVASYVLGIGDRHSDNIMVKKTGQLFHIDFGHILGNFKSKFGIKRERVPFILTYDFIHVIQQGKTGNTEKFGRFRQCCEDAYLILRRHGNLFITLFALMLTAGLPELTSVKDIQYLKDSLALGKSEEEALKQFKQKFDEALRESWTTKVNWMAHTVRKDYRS
UniProt P41241: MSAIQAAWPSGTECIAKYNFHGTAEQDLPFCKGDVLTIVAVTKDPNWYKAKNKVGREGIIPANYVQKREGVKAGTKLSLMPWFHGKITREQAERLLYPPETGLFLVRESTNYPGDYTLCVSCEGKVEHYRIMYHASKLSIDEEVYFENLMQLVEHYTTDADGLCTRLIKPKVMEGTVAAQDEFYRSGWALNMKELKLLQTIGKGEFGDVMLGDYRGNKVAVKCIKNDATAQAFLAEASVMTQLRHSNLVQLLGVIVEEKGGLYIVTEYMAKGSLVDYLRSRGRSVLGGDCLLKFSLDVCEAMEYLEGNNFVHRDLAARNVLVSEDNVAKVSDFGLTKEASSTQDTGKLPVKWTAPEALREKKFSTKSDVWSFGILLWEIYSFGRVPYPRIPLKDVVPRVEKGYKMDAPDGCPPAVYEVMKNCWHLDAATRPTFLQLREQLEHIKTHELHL
UniProt P43404: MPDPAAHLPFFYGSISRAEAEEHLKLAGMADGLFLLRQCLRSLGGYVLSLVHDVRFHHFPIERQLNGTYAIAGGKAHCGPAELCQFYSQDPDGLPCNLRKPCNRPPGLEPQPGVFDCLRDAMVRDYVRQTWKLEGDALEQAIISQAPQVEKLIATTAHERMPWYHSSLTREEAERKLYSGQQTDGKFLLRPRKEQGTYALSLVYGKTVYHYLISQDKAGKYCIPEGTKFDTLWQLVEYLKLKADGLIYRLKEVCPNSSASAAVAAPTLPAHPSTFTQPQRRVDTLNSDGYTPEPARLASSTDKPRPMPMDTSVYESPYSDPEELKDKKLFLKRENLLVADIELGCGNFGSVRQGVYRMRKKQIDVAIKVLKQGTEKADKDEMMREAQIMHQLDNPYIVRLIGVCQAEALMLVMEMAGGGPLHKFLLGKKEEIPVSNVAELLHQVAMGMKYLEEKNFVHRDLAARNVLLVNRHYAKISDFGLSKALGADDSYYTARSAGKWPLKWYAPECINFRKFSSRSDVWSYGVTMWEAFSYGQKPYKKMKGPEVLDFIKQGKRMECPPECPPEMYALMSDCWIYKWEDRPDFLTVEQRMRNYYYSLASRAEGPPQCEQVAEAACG
UniProt Q8R550: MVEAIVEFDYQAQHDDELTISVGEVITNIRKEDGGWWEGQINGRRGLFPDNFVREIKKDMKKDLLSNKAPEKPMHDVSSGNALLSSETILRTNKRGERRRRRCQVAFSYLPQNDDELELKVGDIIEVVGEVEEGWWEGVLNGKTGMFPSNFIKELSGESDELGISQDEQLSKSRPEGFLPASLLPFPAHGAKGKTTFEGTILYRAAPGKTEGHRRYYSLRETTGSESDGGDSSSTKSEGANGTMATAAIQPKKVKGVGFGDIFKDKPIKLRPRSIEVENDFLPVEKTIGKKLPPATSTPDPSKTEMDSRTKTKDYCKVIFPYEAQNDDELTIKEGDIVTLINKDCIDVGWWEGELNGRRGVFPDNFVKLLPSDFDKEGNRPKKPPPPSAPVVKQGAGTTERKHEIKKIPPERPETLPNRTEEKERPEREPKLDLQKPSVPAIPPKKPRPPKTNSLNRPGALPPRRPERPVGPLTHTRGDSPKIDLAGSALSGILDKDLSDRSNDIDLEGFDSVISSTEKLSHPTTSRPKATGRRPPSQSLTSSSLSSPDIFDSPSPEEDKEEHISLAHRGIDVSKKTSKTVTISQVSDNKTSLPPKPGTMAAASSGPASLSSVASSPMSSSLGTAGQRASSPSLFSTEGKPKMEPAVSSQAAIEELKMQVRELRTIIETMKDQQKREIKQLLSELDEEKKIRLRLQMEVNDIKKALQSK
UniProt P47941: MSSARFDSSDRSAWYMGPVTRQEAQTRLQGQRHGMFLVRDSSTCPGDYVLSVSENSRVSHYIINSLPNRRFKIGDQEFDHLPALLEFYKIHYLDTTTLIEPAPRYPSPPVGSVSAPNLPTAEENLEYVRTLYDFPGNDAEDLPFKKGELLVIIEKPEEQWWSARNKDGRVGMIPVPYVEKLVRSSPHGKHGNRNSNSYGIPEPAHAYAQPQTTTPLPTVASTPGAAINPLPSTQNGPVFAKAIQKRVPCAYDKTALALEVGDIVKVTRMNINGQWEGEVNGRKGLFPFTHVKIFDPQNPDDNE
UniProt O08908: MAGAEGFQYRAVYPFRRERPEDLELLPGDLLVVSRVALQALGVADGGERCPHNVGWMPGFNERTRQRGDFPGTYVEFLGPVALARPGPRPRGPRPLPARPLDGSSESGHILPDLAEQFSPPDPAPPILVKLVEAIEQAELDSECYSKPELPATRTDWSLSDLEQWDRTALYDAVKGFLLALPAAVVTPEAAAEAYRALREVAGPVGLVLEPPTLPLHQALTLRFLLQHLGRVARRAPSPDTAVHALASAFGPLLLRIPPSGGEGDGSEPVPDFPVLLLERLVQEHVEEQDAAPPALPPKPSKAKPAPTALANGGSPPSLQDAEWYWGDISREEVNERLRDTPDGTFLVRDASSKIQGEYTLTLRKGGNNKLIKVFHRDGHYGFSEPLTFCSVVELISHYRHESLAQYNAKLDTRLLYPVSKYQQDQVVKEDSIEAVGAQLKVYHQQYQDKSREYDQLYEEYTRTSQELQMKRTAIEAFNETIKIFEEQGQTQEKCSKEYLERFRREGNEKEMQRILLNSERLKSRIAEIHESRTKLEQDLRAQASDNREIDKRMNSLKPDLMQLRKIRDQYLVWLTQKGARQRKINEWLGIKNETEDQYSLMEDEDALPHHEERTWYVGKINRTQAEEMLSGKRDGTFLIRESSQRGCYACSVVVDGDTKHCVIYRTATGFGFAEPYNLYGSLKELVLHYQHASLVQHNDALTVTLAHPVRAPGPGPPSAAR
UniProt P06240: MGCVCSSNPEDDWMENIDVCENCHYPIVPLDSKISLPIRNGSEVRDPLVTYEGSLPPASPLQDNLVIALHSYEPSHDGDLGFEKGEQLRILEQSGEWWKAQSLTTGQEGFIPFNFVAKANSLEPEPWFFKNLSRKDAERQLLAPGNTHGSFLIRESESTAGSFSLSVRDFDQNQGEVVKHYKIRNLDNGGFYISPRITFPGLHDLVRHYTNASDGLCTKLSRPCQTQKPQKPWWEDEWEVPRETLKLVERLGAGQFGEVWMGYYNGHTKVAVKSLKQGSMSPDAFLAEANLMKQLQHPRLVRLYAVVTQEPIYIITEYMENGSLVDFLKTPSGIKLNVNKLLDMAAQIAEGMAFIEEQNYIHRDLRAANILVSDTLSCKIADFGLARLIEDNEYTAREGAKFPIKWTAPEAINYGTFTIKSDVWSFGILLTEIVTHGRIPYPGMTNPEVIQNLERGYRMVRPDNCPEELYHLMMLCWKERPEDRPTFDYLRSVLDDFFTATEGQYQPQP
UniProt Q64010: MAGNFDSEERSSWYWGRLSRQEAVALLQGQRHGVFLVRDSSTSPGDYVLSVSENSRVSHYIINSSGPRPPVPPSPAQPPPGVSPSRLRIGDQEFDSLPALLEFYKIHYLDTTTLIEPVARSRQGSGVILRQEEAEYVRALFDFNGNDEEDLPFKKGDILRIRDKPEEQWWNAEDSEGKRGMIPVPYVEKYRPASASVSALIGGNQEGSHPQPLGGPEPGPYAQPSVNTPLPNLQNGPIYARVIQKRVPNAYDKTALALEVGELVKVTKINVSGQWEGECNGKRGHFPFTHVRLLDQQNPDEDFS
UniProt P39688: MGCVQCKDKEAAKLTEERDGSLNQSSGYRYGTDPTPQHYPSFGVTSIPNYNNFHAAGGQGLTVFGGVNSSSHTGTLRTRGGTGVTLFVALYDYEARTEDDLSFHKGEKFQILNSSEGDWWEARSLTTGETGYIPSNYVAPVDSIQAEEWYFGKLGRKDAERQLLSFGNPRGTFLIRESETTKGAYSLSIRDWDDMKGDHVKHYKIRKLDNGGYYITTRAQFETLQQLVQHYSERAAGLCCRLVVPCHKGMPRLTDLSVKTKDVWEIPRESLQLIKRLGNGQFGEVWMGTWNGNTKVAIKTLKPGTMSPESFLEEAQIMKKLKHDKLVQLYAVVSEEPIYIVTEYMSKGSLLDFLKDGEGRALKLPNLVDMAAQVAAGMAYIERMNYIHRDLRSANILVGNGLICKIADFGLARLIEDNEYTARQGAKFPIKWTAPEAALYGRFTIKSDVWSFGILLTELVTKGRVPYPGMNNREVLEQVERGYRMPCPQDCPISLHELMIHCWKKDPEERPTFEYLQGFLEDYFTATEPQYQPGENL

Experiments:
CBLB-OST (mouse) = CBLB-OST (mouse) (UniProt Q3TTA7); experiment: affinity purification with mass spectrometry; CBL-OST or CBLB-OST captured on Strep-Tactin Sepharose (1.5 h, 4°C) from postnuclear lysates (n-dodecyl-β-maltoside) of short-term expanded mouse CD4+ T cells, unstimulated or 30, 120, 300, 600 s after anti-CD3 + anti-CD4 cross-linking; eluted with 2.5 mM D-biotin; label-free LC-MS/MS against wild-type cells as control
CBL-OST (mouse) = CBL-OST (mouse) (UniProt P22682); experiment: as above

| Substance | binding (CBLB-OST (mouse)) | binding (CBL-OST (mouse)) |
| --- | --- | --- |
| PFN1 (from UniProt P62962 1-140) | binds | – |
| NCK2 (from UniProt O55033 1-380) | binds | – |
| CAPZA2 (from UniProt P47754 1-286) | – | binds |
| PIK3R1 (from UniProt P26450 1-724) | – | binds |
| ITSN2 (from UniProt Q9Z0R6 1-1659) | binds | binds |
| CBLB (from UniProt Q3TTA7 1-982) | – | binds |
| TUBB5 (from UniProt P99024 1-444) | – | binds |
| ITGB2 (from UniProt P11835 24-771) (receptor) | – | binds |
| TUBB4B (from UniProt P68372 1-445) | – | binds |
| catalytic subunit CB of PI3K (from UniProt Q8BTI9 1-1064) (enzyme) | – | binds |
| GRB2 (from UniProt Q60631 1-217) | binds | – |
| CSK (from UniProt P41241 1-450) (enzyme) | binds | binds |
| IQGAP1 (from UniProt Q9JKF1 1-1657) | – | binds |
| ARPC1B (from UniProt Q9WV32 1-372) | – | binds |
| CD2AP (from UniProt Q9JLQ0 1-637) | – | binds |
| ZAP-70 (from UniProt P43404 1-618) (enzyme) | no binding | no binding |
| PIK3CA (from UniProt P42337 1-1068) (enzyme) | – | binds |
| UBASH3B (from UniProt Q8BGG7 1-638) | – | binds |
| SH3KBP1 (from UniProt Q8R550 1-709) | – | binds |
| CRKL (from UniProt P47941 1-303) | binds | – |
| PIK3R2 (from UniProt O08908 1-722) | – | binds |
| LCK (from UniProt P06240 1-509) (enzyme) | no binding | no binding |
| CRK (from UniProt Q64010 1-304) | binds | – |
| GRAP (from UniProt Q9CX99 1-217) | binds | binds |
| FYN (from UniProt P39688 1-537) (enzyme) | no binding | binds |
